The target in this assay is RFP-SUMO2 (UniProt P61956). The assay can be described thus: co-IP; RFP-Trap A beads (Chromotek) on lysates of U2OS cells transfected with RFP-SUMO2, RFP-SUMO3 or RFP empty vector, mock or 2.5 µg/ml bleocin; EBC buffer (50 mM Tris pH 7.3, 0.5% NP-40, 1 mM MgCl2, 50 mM iodoacetamide), Benzonase, NaCl brought to 300 mM; blot with RIF1 antibody.

By UniProt entry, the sequences of proteins in these tests, tags left out. Where a name states a change or a piece, a line headed by the entry shows the natural chain unless it says otherwise.
UniProt P61956: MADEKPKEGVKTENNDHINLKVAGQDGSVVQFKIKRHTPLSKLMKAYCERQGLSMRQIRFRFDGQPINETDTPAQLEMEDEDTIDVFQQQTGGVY
UniProt Q5UIP0: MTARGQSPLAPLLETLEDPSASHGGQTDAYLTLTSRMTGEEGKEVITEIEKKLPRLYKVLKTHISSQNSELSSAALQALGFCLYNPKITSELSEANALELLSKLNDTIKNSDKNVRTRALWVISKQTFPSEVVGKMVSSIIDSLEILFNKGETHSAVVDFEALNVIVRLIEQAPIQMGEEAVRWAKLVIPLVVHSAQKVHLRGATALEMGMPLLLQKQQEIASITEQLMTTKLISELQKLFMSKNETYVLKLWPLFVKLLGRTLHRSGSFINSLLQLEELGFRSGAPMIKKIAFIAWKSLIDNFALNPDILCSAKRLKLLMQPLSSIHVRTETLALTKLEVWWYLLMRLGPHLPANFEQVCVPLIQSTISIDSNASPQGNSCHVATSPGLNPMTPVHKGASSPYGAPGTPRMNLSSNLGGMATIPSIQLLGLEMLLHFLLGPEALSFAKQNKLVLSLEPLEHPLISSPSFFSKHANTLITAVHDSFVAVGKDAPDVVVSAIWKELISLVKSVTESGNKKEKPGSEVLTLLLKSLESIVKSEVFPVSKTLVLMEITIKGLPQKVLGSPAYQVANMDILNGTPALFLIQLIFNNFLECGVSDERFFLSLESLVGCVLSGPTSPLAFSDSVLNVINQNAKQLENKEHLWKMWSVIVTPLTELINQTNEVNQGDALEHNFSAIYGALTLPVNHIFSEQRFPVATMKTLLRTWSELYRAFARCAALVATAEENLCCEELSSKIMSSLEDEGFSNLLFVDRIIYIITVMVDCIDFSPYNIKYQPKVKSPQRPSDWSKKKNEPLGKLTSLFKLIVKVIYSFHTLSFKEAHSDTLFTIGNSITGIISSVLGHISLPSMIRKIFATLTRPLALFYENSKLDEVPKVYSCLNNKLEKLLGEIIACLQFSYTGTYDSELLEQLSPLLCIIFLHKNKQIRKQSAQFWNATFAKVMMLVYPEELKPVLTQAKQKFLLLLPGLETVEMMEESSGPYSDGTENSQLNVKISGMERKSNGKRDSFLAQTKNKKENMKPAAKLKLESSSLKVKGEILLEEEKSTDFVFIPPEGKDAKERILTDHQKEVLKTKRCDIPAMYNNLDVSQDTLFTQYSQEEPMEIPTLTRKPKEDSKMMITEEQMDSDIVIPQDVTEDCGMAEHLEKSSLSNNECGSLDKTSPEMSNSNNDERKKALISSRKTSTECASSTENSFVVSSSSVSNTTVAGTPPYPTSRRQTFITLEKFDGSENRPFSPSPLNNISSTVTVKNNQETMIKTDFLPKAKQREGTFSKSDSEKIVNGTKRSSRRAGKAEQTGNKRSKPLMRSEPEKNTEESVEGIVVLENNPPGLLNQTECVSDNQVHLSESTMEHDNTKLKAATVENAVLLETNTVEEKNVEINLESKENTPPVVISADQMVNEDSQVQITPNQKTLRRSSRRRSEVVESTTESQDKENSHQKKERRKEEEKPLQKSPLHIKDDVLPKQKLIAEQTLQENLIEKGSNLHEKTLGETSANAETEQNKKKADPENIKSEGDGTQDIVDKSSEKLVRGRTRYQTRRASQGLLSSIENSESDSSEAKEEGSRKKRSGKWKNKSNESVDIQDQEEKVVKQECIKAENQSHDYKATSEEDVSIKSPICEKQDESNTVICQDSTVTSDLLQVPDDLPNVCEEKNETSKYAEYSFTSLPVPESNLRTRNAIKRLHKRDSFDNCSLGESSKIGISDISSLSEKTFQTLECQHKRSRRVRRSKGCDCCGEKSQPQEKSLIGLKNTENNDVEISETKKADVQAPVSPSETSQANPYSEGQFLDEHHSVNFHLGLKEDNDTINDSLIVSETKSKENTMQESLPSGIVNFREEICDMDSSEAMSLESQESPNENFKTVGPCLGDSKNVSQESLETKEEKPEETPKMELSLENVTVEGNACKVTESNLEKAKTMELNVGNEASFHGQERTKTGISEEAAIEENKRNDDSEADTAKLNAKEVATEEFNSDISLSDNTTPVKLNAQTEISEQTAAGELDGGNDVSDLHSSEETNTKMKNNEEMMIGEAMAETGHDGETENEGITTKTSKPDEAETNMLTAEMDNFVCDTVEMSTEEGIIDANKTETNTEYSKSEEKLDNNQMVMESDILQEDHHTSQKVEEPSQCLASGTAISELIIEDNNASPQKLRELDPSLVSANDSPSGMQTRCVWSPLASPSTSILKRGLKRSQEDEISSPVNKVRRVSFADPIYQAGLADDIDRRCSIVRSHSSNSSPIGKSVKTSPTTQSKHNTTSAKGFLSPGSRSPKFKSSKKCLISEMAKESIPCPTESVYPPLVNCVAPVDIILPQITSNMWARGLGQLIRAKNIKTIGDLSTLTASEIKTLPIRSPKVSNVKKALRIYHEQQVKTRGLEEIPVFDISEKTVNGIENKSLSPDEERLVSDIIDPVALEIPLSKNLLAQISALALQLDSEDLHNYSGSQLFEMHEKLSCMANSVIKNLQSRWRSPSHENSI

No constants are given. Whether binding was seen depends on the method and setting. In cells and extracts the contact can be indirect. Binding calls can cover weak binding; strength is not graded here.

In the case of RIF1 (from UniProt Q5UIP0 1-2472), the binding result is reported as “binds”.

Values taken from paper PMC5727183.
